According to the supplement of paper PMC6078165:
The reference is the same well before dosing, and untreated signal decays as well.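 Fibroblast labels denote human fibroblasts, mainly primary ones from uterus (C12385, HUF), lung (H6013), bone (Hs27A), adrenal (HADF) and skin (WS1), plus mammary HMF and breast cancer-associated Hs343T. Cancer cells are basal-like or mesenchymal-like triple-negative breast cancer lines. A hit is a response shift exceeding 3x replicate standard deviation. The tissue of the other fibroblasts is not given here.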

Test system: Hs578T
Test: relative JC-1 red fluorescence (viability) vs pre-drug, coculture with fibroblast (fraction); higher = more viable cancer cells
Description: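 JC-1 labelled TNBC cells cocultured 1:1 (1,500 cells each) with CellTrace Violet stained primary or stromal fibroblasts in 384-well plates in FluoroBrite medium, treated with one of 42 anticancer drugs at 0.1, 1, 10 or 100 uM. JC-1 red fluorescence (mitochondrial integrity in cancer cells only) was read by plate reader every 8 h for 72 h. Values are normalised to each well's pre-drug value. The stock of one drug was tenfold lower, so its dose labels may be too high.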

O=C(O)C(=O)O.[NH-][C@@H]1CCCC[C@H]1[NH-].[Pt+2] [Oxaliplatin]
relative JC-1 red fluorescence
Conditions	8 h	16 h	24 h	32 h	40 h	48 h	56 h	64 h	72 h
0.1 µM	0.881	0.797	0.763	0.738	0.679	0.642	0.624	0.592	0.58
1 µM	0.937	0.816	0.739	0.695	0.631	0.583	0.556	0.509	0.489
10 µM	0.938	0.835	0.75	0.694	0.6259	0.577	0.552	0.509	0.489
100 µM	0.954	0.839	0.7846	0.754	0.689	0.646	0.625	0.584	0.573

relative JC-1 red fluorescence
Conditions	8 h	16 h	24 h	32 h	40 h	48 h	56 h	64 h	72 h
0.1 µM, coculture fibroblast: C12385	0.821	0.732	0.678	0.587	0.525	0.498	0.478	0.47	0.474
0.1 µM, coculture fibroblast: H6013	0.867	0.811	0.765	0.742	0.715	0.7096	0.6951	0.7041	0.6832
0.1 µM, coculture fibroblast: H6019	0.8139	0.7281	0.72	0.628	0.598	0.574	0.546	0.528	0.513
0.1 µM, coculture fibroblast: H6076	0.9	0.81	0.761	0.747	0.6958	0.6895	0.6727	0.674	0.678
0.1 µM, coculture fibroblast: H6231	0.872	0.777	0.707	0.6576	0.583	0.562	0.514	0.513	0.508
0.1 µM, coculture fibroblast: HADF	0.854	0.809	0.753	0.717	0.7	0.691	0.679	0.688	0.677
0.1 µM, coculture fibroblast: HCFa	0.8435	0.786	0.735	0.69	0.645	0.64	0.624	0.62	0.599
0.1 µM, coculture fibroblast: HCPF	0.9	0.794	0.734	0.7	0.643	0.619	0.593	0.564	0.548
0.1 µM, coculture fibroblast: HHSteC	0.854	0.786	0.728	0.686	0.638	0.612	0.593	0.583	0.566
0.1 µM, coculture fibroblast: HMF	0.869	0.792	0.733	0.709	0.648	0.62	0.584	0.572	0.562
0.1 µM, coculture fibroblast: HPFa	0.869	0.824	0.779	0.733	0.72	0.706	0.683	0.671	0.638
0.1 µM, coculture fibroblast: HUF	0.827	0.725	0.712	0.592	0.531	0.503	0.481	0.488	0.49
0.1 µM, coculture fibroblast: Hs27A	0.8733	0.844	0.816	0.788	0.744	0.755	0.734	0.746	0.71
0.1 µM, coculture fibroblast: Hs343T	0.88	0.791	0.73	0.712	0.648	0.624	0.589	0.578	0.591
0.1 µM, coculture fibroblast: WS1	0.7655	0.664	0.667	0.5632	0.522	0.524	0.504	0.516	0.533
1 µM, coculture fibroblast: C12385	0.828	0.714	0.643	0.553	0.49	0.462	0.439	0.431	0.429
1 µM, coculture fibroblast: H6013	0.8954	0.811	0.768	0.745	0.716	0.706	0.686	0.686	0.668
1 µM, coculture fibroblast: H6019	0.768	0.677	0.632	0.539	0.494	0.464	0.428	0.403	0.376
1 µM, coculture fibroblast: H6076	0.929	0.807	0.751	0.725	0.673	0.656	0.629	0.618	0.61
1 µM, coculture fibroblast: H6231	0.89825	0.819	0.75	0.712	0.658	0.623	0.577	0.552	0.535
1 µM, coculture fibroblast: HADF	0.9199	0.847	0.777	0.716	0.648	0.6	0.555	0.52	0.485
1 µM, coculture fibroblast: HCFa	0.876	0.786	0.721	0.658	0.579	0.553	0.508	0.487	0.445
1 µM, coculture fibroblast: HCPF	0.965	0.893	0.851	0.807	0.754	0.733	0.7028	0.6657	0.638
1 µM, coculture fibroblast: HHSteC	0.885	0.783	0.729	0.682	0.634	0.604	0.577	0.552	0.517
1 µM, coculture fibroblast: HMF	0.8887	0.7773	0.7266	0.6958	0.645	0.617	0.585	0.559	0.546
1 µM, coculture fibroblast: HPFa	0.934	0.829	0.756	0.69	0.638	0.6	0.547	0.521	0.465
1 µM, coculture fibroblast: HUF	0.881	0.756	0.72	0.623	0.563	0.523	0.487	0.466	0.4535
1 µM, coculture fibroblast: Hs27A	0.886	0.844	0.80598	0.7742	0.723	0.706	0.668	0.653	0.595
1 µM, coculture fibroblast: Hs343T	0.949	0.818	0.729	0.688	0.598	0.562	0.512	0.487	0.472
1 µM, coculture fibroblast: WS1	0.82	0.726	0.666	0.573	0.519	0.507	0.468	0.458	0.456
10 µM, coculture fibroblast: C12385	0.8065	0.734	0.662	0.57	0.504	0.466	0.43	0.405	0.39
10 µM, coculture fibroblast: H6013	0.835	0.787	0.728	0.691	0.646	0.626	0.597	0.583	0.555
10 µM, coculture fibroblast: H6019	0.7665	0.678	0.644	0.565	0.525	0.497	0.464	0.442	0.421
10 µM, coculture fibroblast: H6076	0.889	0.837	0.805	0.8004	0.769	0.774	0.757	0.757	0.754
10 µM, coculture fibroblast: H6231	0.895	0.777	0.734	0.687	0.618	0.587	0.545	0.523	0.5
10 µM, coculture fibroblast: HADF	0.848	0.792	0.7067	0.64	0.597	0.567	0.53	0.51	0.469
10 µM, coculture fibroblast: HCFa	0.833	0.768	0.696	0.613	0.537	0.499	0.464	0.438	0.399
10 µM, coculture fibroblast: HCPF	0.914	0.8443	0.801	0.755	0.688	0.657	0.631	0.596	0.564
10 µM, coculture fibroblast: HHSteC	0.845	0.772	0.698	0.652	0.599	0.566	0.544	0.522	0.496
10 µM, coculture fibroblast: HMF	0.916	0.86	0.809	0.784	0.721	0.7023	0.6634	0.634	0.614
10 µM, coculture fibroblast: HPFa	0.929	0.842	0.765	0.706	0.647	0.609	0.565	0.544	0.501
10 µM, coculture fibroblast: HUF	0.8518	0.754	0.743	0.643	0.584	0.55	0.518	0.51	0.49
10 µM, coculture fibroblast: Hs27A	0.9256	0.8373	0.8131	0.7827	0.741	0.738	0.706	0.692	0.643
10 µM, coculture fibroblast: Hs343T	0.9535	0.847	0.77	0.741	0.65	0.611	0.558	0.5244	0.5022
10 µM, coculture fibroblast: WS1	0.812	0.707	0.654	0.547	0.478	0.448	0.417	0.402	0.386
100 µM, coculture fibroblast: C12385	0.867	0.74996	0.679	0.599	0.535	0.501	0.469	0.452	0.434
100 µM, coculture fibroblast: H6013	0.9333	0.868	0.8135	0.784	0.723	0.688	0.6482	0.6217	0.589
100 µM, coculture fibroblast: H6019	0.81	0.707	0.644	0.543	0.481	0.446	0.413	0.391	0.3633
100 µM, coculture fibroblast: H6076	0.956	0.833	0.792	0.744	0.691	0.676	0.639	0.604	0.5867
100 µM, coculture fibroblast: H6231	0.933	0.881	0.807	0.757	0.704	0.678	0.635	0.613	0.593
100 µM, coculture fibroblast: HADF	0.9433	0.869	0.804	0.7578	0.714	0.681	0.6377	0.6254	0.591
100 µM, coculture fibroblast: HCFa	0.9415	0.887	0.863	0.8271	0.788	0.774	0.741	0.728	0.698
100 µM, coculture fibroblast: HCPF	0.88	0.915	0.859	0.818	0.769	0.747	0.726	0.681	0.649
100 µM, coculture fibroblast: HHSteC	0.904	0.792	0.749	0.718	0.671	0.635	0.614	0.587	0.553
100 µM, coculture fibroblast: HMF	0.919	0.815	0.77	0.7345	0.677	0.6484	0.621	0.593	0.569
100 µM, coculture fibroblast: HPFa	0.883	0.845	0.805	0.763	0.737	0.708	0.666	0.648	0.616
100 µM, coculture fibroblast: HUF	0.8967	0.769	0.7278	0.631	0.564	0.523	0.483	0.463	0.445
100 µM, coculture fibroblast: Hs27A	0.907	0.863	0.806	0.773	0.73	0.715	0.683	0.682	0.634
100 µM, coculture fibroblast: Hs343T	0.93	0.8065	0.773	0.745	0.694	0.673	0.641	0.616	0.609
100 µM, coculture fibroblast: WS1	0.87324	0.765	0.682	0.601	0.539	0.517	0.479	0.459	0.446
